Results: paper PMC9278118
These are yes or no findings as the source states them, for the method shown. For some assays here: In cells and extracts the contact can be indirect. Some binding calls cover weakened binding; strength is not graded here. Tags and fused reporters may be left off the sequences shown. Blank lines part the entries; values can stand above or below the molecule they belong to.

Sequences of proteins named here, by UniProt entry; tags and fusion partners are left off.
UniProt P17980: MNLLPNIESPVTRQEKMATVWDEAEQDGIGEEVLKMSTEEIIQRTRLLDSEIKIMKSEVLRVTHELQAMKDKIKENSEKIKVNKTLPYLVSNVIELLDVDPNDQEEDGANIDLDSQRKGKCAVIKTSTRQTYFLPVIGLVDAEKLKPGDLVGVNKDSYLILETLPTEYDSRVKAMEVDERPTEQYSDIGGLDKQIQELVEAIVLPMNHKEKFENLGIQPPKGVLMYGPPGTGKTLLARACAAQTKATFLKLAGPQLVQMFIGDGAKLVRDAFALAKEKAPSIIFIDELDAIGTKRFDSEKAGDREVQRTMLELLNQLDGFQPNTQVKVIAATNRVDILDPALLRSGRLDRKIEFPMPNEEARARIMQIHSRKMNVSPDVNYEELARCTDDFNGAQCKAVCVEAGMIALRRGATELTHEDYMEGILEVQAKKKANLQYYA

Experiments:
[1] = biological target: T1, Flag-tagged VCPIP1 (pVCPIP1-Flag) (UniProt Q96JH7); assay: co-IP; lysates of transfected Huh7 cells (1 mg) precipitated with EZview Red anti-Flag M2 affinity gel, Western blot; in Fig. 5A cells with or without pVCPIP1-Myc and treated with MG132
T1 sequence: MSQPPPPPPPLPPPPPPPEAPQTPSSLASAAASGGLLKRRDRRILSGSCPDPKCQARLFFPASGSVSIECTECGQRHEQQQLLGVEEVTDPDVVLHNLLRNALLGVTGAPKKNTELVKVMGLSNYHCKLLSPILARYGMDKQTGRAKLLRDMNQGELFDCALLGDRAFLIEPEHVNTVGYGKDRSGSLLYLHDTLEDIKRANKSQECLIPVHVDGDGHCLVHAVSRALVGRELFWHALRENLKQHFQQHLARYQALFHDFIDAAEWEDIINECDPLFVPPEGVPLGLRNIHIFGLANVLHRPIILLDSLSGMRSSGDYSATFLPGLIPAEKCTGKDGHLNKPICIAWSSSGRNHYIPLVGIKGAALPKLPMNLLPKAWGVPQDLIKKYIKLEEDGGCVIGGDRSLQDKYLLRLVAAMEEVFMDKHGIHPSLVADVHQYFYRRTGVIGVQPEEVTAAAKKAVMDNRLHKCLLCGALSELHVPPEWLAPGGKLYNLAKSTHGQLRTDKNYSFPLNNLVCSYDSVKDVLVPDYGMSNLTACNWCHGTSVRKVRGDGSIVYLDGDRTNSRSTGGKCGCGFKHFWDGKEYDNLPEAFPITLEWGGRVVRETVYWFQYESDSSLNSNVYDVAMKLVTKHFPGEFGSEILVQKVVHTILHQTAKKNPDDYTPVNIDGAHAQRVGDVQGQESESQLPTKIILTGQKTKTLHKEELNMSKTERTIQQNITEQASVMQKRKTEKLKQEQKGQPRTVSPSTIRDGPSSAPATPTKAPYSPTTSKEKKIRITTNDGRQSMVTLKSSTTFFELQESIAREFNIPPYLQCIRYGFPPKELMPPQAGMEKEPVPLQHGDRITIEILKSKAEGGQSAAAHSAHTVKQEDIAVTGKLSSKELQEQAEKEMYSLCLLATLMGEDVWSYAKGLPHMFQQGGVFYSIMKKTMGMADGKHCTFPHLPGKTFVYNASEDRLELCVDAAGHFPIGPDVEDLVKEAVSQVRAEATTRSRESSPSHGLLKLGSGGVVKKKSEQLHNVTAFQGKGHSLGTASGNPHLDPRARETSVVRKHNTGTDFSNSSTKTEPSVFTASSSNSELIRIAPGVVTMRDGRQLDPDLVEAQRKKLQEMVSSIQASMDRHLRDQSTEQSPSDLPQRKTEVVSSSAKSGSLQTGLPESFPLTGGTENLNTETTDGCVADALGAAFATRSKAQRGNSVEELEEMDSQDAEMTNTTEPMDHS

[2] = biological target: full-length PSMC3 (aa 1–439) fused to the DNA-BD epitope (pGBKT7-PSMC3 (aa 1–439)) (human) (UniProt P17980); assay: two-hybrid; Matchmaker Gold system; Y2HGold with pGBKT7 bait mated with Y187 with pGADT7 prey for 22 h; diploids selected on QDO/AbA (SD/-Trp/-Leu/-His/-Ade with 125 ng/mL aureobasidin A)

- binding [1]: binds
Molecule: endogenous PSMC3 (26S proteasome regulatory subunit 6A) (from UniProt P17980 1-439)

- binding [2]: binds
B1: VCPIP1 (aa 1-1221) fused with the GAL4 AD domain (pGADT7-VCPIP1) (enzyme, UniProt Q96JH7 1-1221)
chain: MSQPPPPPPPLPPPPPPPEAPQTPSSLASAAASGGLLKRRDRRILSGSCPDPKCQARLFFPASGSVSIECTECGQRHEQQQLLGVEEVTDPDVVLHNLLRNALLGVTGAPKKNTELVKVMGLSNYHCKLLSPILARYGMDKQTGRAKLLRDMNQGELFDCALLGDRAFLIEPEHVNTVGYGKDRSGSLLYLHDTLEDIKRANKSQECLIPVHVDGDGHCLVHAVSRALVGRELFWHALRENLKQHFQQHLARYQALFHDFIDAAEWEDIINECDPLFVPPEGVPLGLRNIHIFGLANVLHRPIILLDSLSGMRSSGDYSATFLPGLIPAEKCTGKDGHLNKPICIAWSSSGRNHYIPLVGIKGAALPKLPMNLLPKAWGVPQDLIKKYIKLEEDGGCVIGGDRSLQDKYLLRLVAAMEEVFMDKHGIHPSLVADVHQYFYRRTGVIGVQPEEVTAAAKKAVMDNRLHKCLLCGALSELHVPPEWLAPGGKLYNLAKSTHGQLRTDKNYSFPLNNLVCSYDSVKDVLVPDYGMSNLTACNWCHGTSVRKVRGDGSIVYLDGDRTNSRSTGGKCGCGFKHFWDGKEYDNLPEAFPITLEWGGRVVRETVYWFQYESDSSLNSNVYDVAMKLVTKHFPGEFGSEILVQKVVHTILHQTAKKNPDDYTPVNIDGAHAQRVGDVQGQESESQLPTKIILTGQKTKTLHKEELNMSKTERTIQQNITEQASVMQKRKTEKLKQEQKGQPRTVSPSTIRDGPSSAPATPTKAPYSPTTSKEKKIRITTNDGRQSMVTLKSSTTFFELQESIAREFNIPPYLQCIRYGFPPKELMPPQAGMEKEPVPLQHGDRITIEILKSKAEGGQSAAAHSAHTVKQEDIAVTGKLSSKELQEQAEKEMYSLCLLATLMGEDVWSYAKGLPHMFQQGGVFYSIMKKTMGMADGKHCTFPHLPGKTFVYNASEDRLELCVDAAGHFPIGPDVEDLVKEAVSQVRAEATTRSRESSPSHGLLKLGSGGVVKKKSEQLHNVTAFQGKGHSLGTASGNPHLDPRARETSVVRKHNTGTDFSNSSTKTEPSVFTASSSNSELIRIAPGVVTMRDGRQLDPDLVEAQRKKLQEMVSSIQASMDRHLRDQSTEQSPSDLPQRKTEVVSSSAKSGSLQTGLPESFPLTGGTENLNTETTDGCVADALGAAFATRSKAQRGNSVEELEEMDSQDAEMTNTTEPMDH
